Assay results: PubChem BioAssay AID1259354 (Paczesny and Yang Labs, IUPUI and University of Michigan, 2018)
“And” between values parts separate entries of the source, which are not always exact repeats. Identical values can stand only once. The whole screen tested about 78,000 compounds, of which about 1,800 (2.3%) were called active. Inconclusive results, whose numbers are uncertain, are shown with a selection of clear calls. Rule as the data show it: active = inhibition above about 30%; inconclusive = mostly about 10% to 28%; inactive = weaker than that.

By UniProt entry, the sequences of proteins in these tests, tags left out. Where a name states a change or a piece, a line headed by the entry shows the natural chain unless it says otherwise.
UniProt Q01638: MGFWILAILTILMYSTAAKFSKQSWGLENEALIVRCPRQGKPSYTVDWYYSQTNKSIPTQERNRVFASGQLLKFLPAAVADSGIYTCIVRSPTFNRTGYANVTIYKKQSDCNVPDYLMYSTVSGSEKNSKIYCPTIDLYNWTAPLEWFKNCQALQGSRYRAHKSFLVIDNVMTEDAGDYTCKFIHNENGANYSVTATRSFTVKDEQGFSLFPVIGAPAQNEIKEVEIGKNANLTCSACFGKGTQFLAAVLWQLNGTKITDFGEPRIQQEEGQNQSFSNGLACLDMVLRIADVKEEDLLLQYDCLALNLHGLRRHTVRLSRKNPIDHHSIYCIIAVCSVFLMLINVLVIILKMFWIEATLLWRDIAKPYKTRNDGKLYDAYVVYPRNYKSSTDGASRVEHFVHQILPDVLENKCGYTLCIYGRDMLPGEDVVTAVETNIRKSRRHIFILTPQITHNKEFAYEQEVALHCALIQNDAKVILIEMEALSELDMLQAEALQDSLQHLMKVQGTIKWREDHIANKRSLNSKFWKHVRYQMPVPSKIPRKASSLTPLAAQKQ

biological target: Interleukin-1 receptor-like 1 (Homo sapiens) (UniProt Q01638); test: blocks human ST2 binding to IL-33, primary screen, biochemical, AlphaLISA (AID 1259354); conditions: AlphaLISA ST2-Fc/biotin-IL-33 interaction, 1 h; at 17 µM, hits give high values

| SMILES | inhibition |
| --- | --- |
| CC(NC(=O)c1c(F)cccc1F)C(c1cccs1)N1CCOCC1 (stereo not drawn) | inactive |
| Cc1nc(NC(=O)NCc2cc3ccccc3s2)nn1C | inconclusive: 14% |
| O=[N+]([O-])c1ccc(-c2noc(-c3ccco3)n2)cc1 | inconclusive: 24% |
| CN1C[C@@H](NC(=O)COc2ccccc2)C[C@H]1c1nc(-c2cccnc2)no1 | active: 65% |
| COc1ccc(C2=NN(CN3C(=O)C(=O)c4ccccc43)C(c3cccc([N+](=O)[O-])c3)C2)cc1 (stereo not drawn) | active: 39% |
| Cn1c(-c2ccncc2)nc2cc(C(=O)NCc3ccccc3F)cc(NC(=O)C3CCC3)c21 | inconclusive: 13% |
| COc1ccc(NC(=O)C(C)n2cccn2)cc1NC(=O)c1ccccc1 (stereo not drawn) | inactive |
| CCCc1c(-c2ccc(O)cc2)nn(-c2ccc(O)cc2)c1-c1ccc(O)cc1 | inconclusive: 20% |
| CCc1nc2c(cnn2-c2ccc(Cl)cc2)c(=O)n1-c1ccc(C)cc1 | inconclusive: 14% |
| COc1ccc(N(C)C)cc1 | active: 32% |
| CCOC(=O)N1CCN(Cc2nc(-c3cc4c(cc3Cl)OCO4)oc2C)CC1 | inconclusive: 13% |
| CCc1csc(CNC(=O)c2ccc(N3CCCC(OC)C3)nc2)n1 (stereo not drawn) | inactive |
| CN(Cc1ncc[nH]1)C(=O)C1CCCN(C2CCN(c3nc4ccccc4o3)CC2)C1 (stereo not drawn) | inactive |
| Cc1ccncc1C(=O)NCc1cccnc1N(C)CCc1ccccn1 | inconclusive: 11% |
| CC1(C)C(=O)NCCN1C(=O)CC(c1ccccc1)c1ccc2c(c1)OCO2 (stereo not drawn) | inconclusive: 10% |
| NC(=O)c1cc2c(cc1-c1cccc(C(F)(F)F)c1)OCO2 | inconclusive: 19% |
| Cc1cc(NC(=O)C(NC(=O)C2CCCCC2)C(C)C)ccc1Br (stereo not drawn) | inactive |
| O=C(CN1C(=O)c2ccccc2C1=O)OCc1nc2ccccc2s1 | inactive |
| OCc1ccc(CN2C[C@H](O)C[C@H]2c2nc(-c3ccc(OC(F)(F)F)cc3)no2)o1 | inconclusive: 26% |
| OCCn1c(-c2ccc(Cl)c(Cl)c2)csc1=Nc1ccccc1 | active: 53% and active: 48% |
| COc1ccc(N2CC(NC(=O)c3cc4ccccc4o3)CC2=O)cc1 (stereo not drawn) | inconclusive: 15% |
| Cn1c(=O)c2cc(S(=O)(=O)N3CCN(Cc4ccccc4)CC3)ccc2n(C)c1=O | inactive |
| CC(C)c1cc(C(=O)O)c2cc(Br)ccc2n1 | inactive |
| COc1ccc(OC)c(C2SCCN2S(=O)(=O)c2ccc([N+](=O)[O-])cc2)c1 (stereo not drawn) | inconclusive: 17% |

| SMILES | inhibition |
| --- | --- |
| COc1ccc(C(=O)Nc2c3c(nn2-c2cccc(C)c2C)CS(=O)C3)c(OC)c1 (stereo not drawn) | inactive |
| Cc1ccc(Cl)cc1N1C(=O)C2C(c3ccccc3)OC3(C(=O)c4ccccc4C3=O)C2C1=O (stereo not drawn) | inconclusive: 10% |
| CCCC1CCC(C(=O)NC(C(=O)O)C(C)C)CC1 (stereo not drawn) | inactive |
| CCCc1nc(N2Cc3cnn(CCO)c3C2)c2cnn(C)c2n1 | inactive |
| CCCS(=O)(=O)Nc1ccc2n(c1=O)C[C@H]1C[C@@H]2CN(C(=O)c2ccc(-c3ccccc3)cc2)C1 | inconclusive: 12% |
| CN1C[C@@H]2CC[C@H](CC1=O)N2C(=O)c1nc2ccccc2[nH]c1=O | inconclusive: 19% |
| O=C(c1cccnc1-c1ccc(-c2ccn[nH]2)cc1)N1CCCC1 | inconclusive: 14% |
| CCCc1nnc2sc(Cc3cc4c(cc3Cl)OCCO4)nn12 | inconclusive: 17% |
| COc1cc(C(=O)Nc2c(-c3ccc(F)cc3)nc3ccccn23)cc(OC)c1OC | inactive |
| CC(C)c1nnc2sc(C3CCCN(C4CCCC4)C3)nn12 (stereo not drawn) | inactive |
| OCCC1CN(Cc2cccn2-c2cccnc2)CCN1CC1CCCCC1 (stereo not drawn) | inactive |
| CCOC(=O)C1=C(c2ccccc2)N=C2SCC(=O)N2C1c1c(OC)ccc2ccccc12 (stereo not drawn) | inconclusive: 12% |
| O=C(NC1CCCCC1)c1ccc(C(=O)NC2CCCCC2)c([N+](=O)[O-])c1 | inconclusive: 19% |
| Cc1nnsc1CN(C)C1CCN(c2ccc3c(c2)OCO3)CC1 | inconclusive: 24% |
| Cc1ccc(NS(=O)(=O)c2ccc(F)cc2)c(NS(=O)(=O)c2ccc(F)cc2)c1 | inconclusive: 10% |
| Cc1ccc2nc(-c3ccc(C)o3)c(NC3CCCCC3)n2c1 | inconclusive: 20% |
| CN(C)c1ccc(/C=C/c2nc(=O)c3ccccc3o2)cc1 | active: 55% |
| CC(=O)N1N=C(c2cccs2)CC1c1ccc(F)cc1 (stereo not drawn) | inconclusive: 14% |
| CN1CCN(C(=O)CNS(=O)(=O)c2cccs2)CC1 | inactive |
| Nc1ccc(-c2nccc(CCC(F)(F)F)n2)cn1 | inconclusive: 23% |
| O=c1oc2ccccc2n1CCOc1ccccc1 | inactive |
| Cn1c(=O)c2c(nc(CN3CCN(c4ccc(F)cc4)CC3)n2CC(N)=O)n(C)c1=O | inactive |
| CC(C)N1CCC(N2CCN(Cc3cn[nH]c3C3CCCCC3)CC2CCO)CC1 (stereo not drawn) | inactive |
| COc1ccc(OC2CCN(C(=O)C3CC3)CC2)c(C(=O)NCc2cnc(C)cn2)c1 | inconclusive: 16% |

| SMILES | inhibition |
| --- | --- |
| O=C(Nc1ccc2c(c1)OCO2)C1(S(=O)(=O)c2ccc(Cl)cc2)CC1 | inconclusive: 17% |
| Cc1cccn2c(CC(=O)NC[C@@H]3C[C@@H]4C=C[C@H]3C43CC3)cnc12 | inactive |
| Cc1ccccc1N1CC23C=CC(O2)C(C(=O)O)C3C1=O (stereo not drawn) | inconclusive: 14% |
| O=C(CCN1CCCCO1)NCC1(N2CCOCC2)CCCCC1 | inconclusive: 19% |
| CCc1ccccc1NC(=O)C(=O)N1CCCC(N2CCCC2=O)C1 (stereo not drawn) | inconclusive: 15% |
| CCOc1ccc(C2C(C(=O)OC(C)C)=C(C)N=C3SCCC(=O)N32)cc1OCC (stereo not drawn) | inactive |
| O=C(CN1C(=O)/C(=C\c2cccc(Cl)c2)Sc2ccccc21)NCCN1CCOCC1 | active: 36% |
| COc1cccc(C2c3[nH]c4ccccc4c3CCN2C(=O)c2ccoc2)c1 (stereo not drawn) | inconclusive: 13% |
| CCOC(=O)Cn1c(=O)n(-c2ccc(C)c(C)c2)c2nc(-c3cccc(Cl)c3)nc(C(N)=O)c21 | inconclusive: 15% |
| CC/C=C(\C)c1c(-c2ccccc2)ncn1CC(O)CO (stereo not drawn) | inconclusive: 17% |
| N#Cc1cccc(-c2ccnc(N[C@H]3CO[C@H]4[C@@H]3OC[C@H]4OC(=O)Nc3cccc(C(F)(F)F)c3)n2)c1 | inconclusive: 21% |
| O=C1CN(S(=O)(=O)c2ccc3c(c2)CCN3C(=O)C2CC2)CC(=O)N1CCc1ccccc1 | inconclusive: 16% |
| CN(C(=O)c1cccs1)c1ccccc1-c1n[nH]c(CCc2ccccc2)n1 | inconclusive: 10% |
| CCN(c1ccc(C)c(C)c1)S(=O)(=O)c1cc(Br)cc2c1N(C(C)=O)C(C)C2 (stereo not drawn) | inactive |
| Cn1cncc1-c1nnc([C@H]2CCN(C(=O)C3CC3)C2)o1 | inactive |
| CCC(=O)N1CCc2cc(Br)cc(S(=O)(=O)CCC(=O)N(CC)CC)c21 | inactive |
| CC(=O)c1cccc(N2CN=c3s/c(=C\c4ccco4)c(=O)n3C2)c1 | inconclusive: 23% |
| O=c1c(CN(Cc2ccccn2)CC2CCCO2)coc2ccccc12 (stereo not drawn) | inconclusive: 13% |
| O=C(c1ccc(F)cc1)c1c[nH]c2ccccc2c1=O | inconclusive: 13% |
| O=C(c1cccc(C(F)(F)F)c1)C1CCCN(Cc2c[nH]c(=O)[nH]c2=O)C1 (stereo not drawn) | inactive |
| COc1ccc(/C=C/C(=O)Nc2ccccc2C(=O)O)cc1OC | inactive |
| O=C(c1cccs1)C(O)NS(=O)(=O)c1ccccc1 (stereo not drawn) | inconclusive: 15% |
| OCc1cccc(-n2ccnc2-c2ccc(Cl)cc2F)c1 | inactive |
| O=C(CSc1n[nH]c(-c2ccccc2)n1)c1ccc(Br)cc1 | inconclusive: 22% |

| SMILES | inhibition |
| --- | --- |
| Cn1c(=O)c2cc(S(=O)(=O)NCCc3ccccc3)ccc2n(C)c1=O | inconclusive: 14% |
| COc1ccc(OC)c(NC(=O)Cn2cnc3c(cnn3-c3ccc(Cl)cc3)c2=O)c1 | inactive |
| Cc1sc2ncnc(NC3CCCCC3)c2c1C | inactive |
| O=C1CC(Sc2ccccn2)C(=O)N1c1ccc(Br)cc1 (stereo not drawn) | active: 40% |
| NC(=O)CNC(=O)C1=C[C@@H](NC(=O)Nc2ccc(OC(F)(F)F)cc2)[C@@H](O)[C@H](O)C1 | inconclusive: 28% |
| CC1=C(C(=O)Nc2ccccc2C)C(c2ccccn2)n2nc(SCc3ccccc3)nc2N1 (stereo not drawn) | inconclusive: 13% |
| CC1=C(C(=O)Nc2cc(C)ccn2)C(c2ccc([N+](=O)[O-])cc2)C2=C(CCCC2=O)N1 (stereo not drawn) | inconclusive: 15% |
| CCc1ccc(-n2c(N)c(C#N)c3nc4ccccc4nc32)cc1 | inconclusive: 24% |
| Cc1ccc(Nc2c(-c3ccco3)nc3ccccn23)cc1 | inconclusive: 15% |
| C/C(=C\CCC1(C)C2CC3C(C2)C31C)C(=O)O (stereo not drawn) | inconclusive: 21% |
| CN(C)S(=O)(=O)NCc1cccnc1N1CCc2ccccc2C1 | inactive |
| CCOC(=O)c1ccccc1NC(=O)NCCc1nc2cccnc2n1-c1ccccc1 | inconclusive: 17% |
| CN(Cc1ccccc1)Cc1cn(C[C@H]2O[C@@H](CC(=O)N3CCCC3)[C@H](O)[C@@H]2O)nn1 | inconclusive: 15% |
| O=C1CC(N2CCN(c3ccccc3)CC2)C(=O)N1c1ccc(Cl)c(Cl)c1 (stereo not drawn) | inconclusive: 14% |
| CCOc1ccc(N2C(=O)S/C(=C\c3ccc(OC)cc3)C2=O)cc1 | inactive |
| O=C(c1cc2c(s1)CCCC2)N1CCCn2cncc2C1 | inactive |
| CCCS(=O)(=O)N1CCCC(C(=O)NCCOC)C1 (stereo not drawn) | inconclusive: 10% |
| CC(=O)c1cccc(Nc2ncnc3c2cnn3-c2cccc(C)c2)c1 | inactive |
| CC(C)(C)c1ccnc(N[C@H]2CO[C@H]3[C@@H]2OC[C@@H]3NC(=O)Nc2cccc3ccccc23)n1 | inconclusive: 12% |
| Cc1nc2ccc(C(=O)N3CCC4(CC3)OCCO4)cc2nc1C | inconclusive: 10% |
| Cc1nc2c(NS(=O)(=O)NCc3ccccc3)cccn2n1 | inactive |
